Record: PubChem BioAssay AID493246 (Drosophila RNAi Screening Center, 2011)

- Assay: 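Genome-wide search for dsRNAs that reduce cell number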 (primary screen)
- Cell system: Drosophila Kc and S2R+ cells
- Reagents: long dsRNA against Drosophila genes
- Read-out: 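Raw, unnormalised count of remaining cells in each well; per-plate z-scores of cell number underlie the calls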
- Reading the numbers: Kc cell number and S2R+ cell number: higher = more cells remaining
- Hit rule: 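Active when the per-plate z-score of cell number is 3 or more in the direction of fewer cells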
The screen tested about 21,000 reagents; below is an unselected part of those that have a named target and a result. In the full data, 429 (2%) were called active. 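Values are raw and not normalised between plates; calls rest on per-plate z-scores that were not deposited.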 Reagents against one gene are numbered here. A plus sign joins genes that one reagent is predicted to hit. The record does not give: the amount of reagent, the time to read-out.

The first 2 records, to show the layout:
Fpgs1
- Kc cell number, rep 1: 1.56e6
- Kc cell number, rep 2: 1.52e6
- S2R+ cell number, rep 1: 1.07e6
- S2R+ cell number, rep 2: 1.17e6
- call: inactive

CG10171
- Kc cell number, rep 1: 1.28e6
- Kc cell number, rep 2: 1.41e6
- S2R+ cell number, rep 1: 1.39e6
- S2R+ cell number, rep 2: 1.05e6
- call: inactive

The list itself, repeating the preview:
Fpgs1
- Kc cell number, rep 1: 1.56e6
- Kc cell number, rep 2: 1.52e6
- S2R+ cell number, rep 1: 1.07e6
- S2R+ cell number, rep 2: 1.17e6
- call: inactive

CG10171
- Kc cell number, rep 1: 1.28e6
- Kc cell number, rep 2: 1.41e6
- S2R+ cell number, rep 1: 1.39e6
- S2R+ cell number, rep 2: 1.05e6
- call: inactive

CG4363
- Kc cell number, rep 1: 1.54e6
- Kc cell number, rep 2: 1.58e6
- S2R+ cell number, rep 1: 1.26e6
- S2R+ cell number, rep 2: 4.15e5
- call: inactive

KP78a + KP78b #1
- Kc cell number, rep 1: 1.49e6
- Kc cell number, rep 2: 1.47e6
- S2R+ cell number, rep 1: 1.23e6
- S2R+ cell number, rep 2: 1.29e6
- call: inactive

KP78a + KP78b #2
- Kc cell number, rep 1: 1.47e6
- Kc cell number, rep 2: 1.47e6
- S2R+ cell number, rep 1: 1.19e6
- S2R+ cell number, rep 2: 1.27e6
- call: inactive

CG9536
- Kc cell number, rep 1: 1.43e6
- Kc cell number, rep 2: 1.49e6
- S2R+ cell number, rep 1: 7.48e5
- S2R+ cell number, rep 2: 8.62e5
- call: inactive

rdhB
- Kc cell number, rep 1: 1.56e6
- Kc cell number, rep 2: 1.59e6
- S2R+ cell number, rep 1: 1.26e6
- S2R+ cell number, rep 2: 1.26e6
- call: inactive

Vmat #1
- Kc cell number, rep 1: 1.36e6
- Kc cell number, rep 2: 1.38e6
- S2R+ cell number, rep 1: 1.12e6
- S2R+ cell number, rep 2: 1.10e6
- call: inactive

Vmat #2
- Kc cell number, rep 1: 1.67e6
- Kc cell number, rep 2: 1.67e6
- S2R+ cell number, rep 1: 1.22e6
- S2R+ cell number, rep 2: 1.37e6
- call: inactive

ana1
- Kc cell number, rep 1: 1.87e6
- Kc cell number, rep 2: 1.90e6
- S2R+ cell number, rep 1: 1.34e6
- S2R+ cell number, rep 2: 1.41e6
- call: inactive

CG7130
- Kc cell number, rep 1: 1.58e6
- Kc cell number, rep 2: 1.59e6
- S2R+ cell number, rep 1: 1.42e6
- S2R+ cell number, rep 2: 1.50e6
- call: inactive

Lcp65Af
- Kc cell number, rep 1: 1.54e6
- Kc cell number, rep 2: 1.57e6
- S2R+ cell number, rep 1: 1.22e6
- S2R+ cell number, rep 2: 1.26e6
- call: inactive

TotC
- Kc cell number, rep 1: 1.36e6
- Kc cell number, rep 2: 1.40e6
- S2R+ cell number, rep 1: 1.02e6
- S2R+ cell number, rep 2: 1.07e6
- call: inactive

mub
- Kc cell number, rep 1: 1.78e6
- Kc cell number, rep 2: 1.88e6
- S2R+ cell number, rep 1: 1.19e6
- S2R+ cell number, rep 2: 1.29e6
- call: inactive

cindr #1
- Kc cell number, rep 1: 5.56e5
- S2R+ cell number, rep 1: 9.09e5
- call: inactive

cindr #2
- Kc cell number, rep 1: 1.44e6
- Kc cell number, rep 2: 1.43e6
- S2R+ cell number, rep 1: 8.91e5
- S2R+ cell number, rep 2: 9.60e5
- call: inactive

LManVI
- Kc cell number, rep 1: 1.59e6
- Kc cell number, rep 2: 1.64e6
- S2R+ cell number, rep 1: 1.06e6
- S2R+ cell number, rep 2: 1.20e6
- call: inactive

CG31952
- Kc cell number, rep 1: 1.52e6
- Kc cell number, rep 2: 1.47e6
- S2R+ cell number, rep 1: 1.11e6
- S2R+ cell number, rep 2: 1.26e6
- call: inactive

CG14120
- Kc cell number, rep 1: 1.40e6
- Kc cell number, rep 2: 1.46e6
- S2R+ cell number, rep 1: 1.20e6
- S2R+ cell number, rep 2: 1.28e6
- call: inactive

eEF1delta
- Kc cell number, rep 1: 1.24e6
- Kc cell number, rep 2: 1.34e6
- S2R+ cell number, rep 1: 1.06e6
- S2R+ cell number, rep 2: 1.15e6
- call: inactive

pira
- Kc cell number, rep 1: 1.51e6
- Kc cell number, rep 2: 1.49e6
- S2R+ cell number, rep 1: 9.17e5
- S2R+ cell number, rep 2: 1.03e6
- call: inactive
